# Test results published in paper PMC6819324.
# Construct, isoform or probe ends are uncertain for at least one entry. No signal at the amounts used counts as a negative. Protein sequences can lack the tags named with them.
# Target: T1, AdpAlin (Streptomyces lincolnensis NRRL 2936) (UniProt A0A1B1M9Y0)
# T1 sequence (looked up, limits assumed): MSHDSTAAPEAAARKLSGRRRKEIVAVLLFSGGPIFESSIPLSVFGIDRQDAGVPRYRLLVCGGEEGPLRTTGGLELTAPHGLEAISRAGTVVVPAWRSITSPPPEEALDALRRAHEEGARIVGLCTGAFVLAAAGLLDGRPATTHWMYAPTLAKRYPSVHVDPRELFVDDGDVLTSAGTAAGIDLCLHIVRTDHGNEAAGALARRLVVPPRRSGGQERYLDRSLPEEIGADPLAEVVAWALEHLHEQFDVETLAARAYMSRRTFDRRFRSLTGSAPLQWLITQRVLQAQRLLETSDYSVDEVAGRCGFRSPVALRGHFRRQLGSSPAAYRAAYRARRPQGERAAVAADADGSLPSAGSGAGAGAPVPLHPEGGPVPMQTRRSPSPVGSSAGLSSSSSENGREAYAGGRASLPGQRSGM
# Assay: EMSA
# Conditions: EMSA: 20 mM Tris-HCl pH 7.5, 5% glycerol, 0.1% BSA, 2.5 nM 5'-biotin probe, AdpAlin 0-6.4 uM (12.8 uM for probe-neg), 200-fold unlabeled competitor, recombinant protein, label: 5'-biotin, probe letters rebuilt from the primers and the genome
Sequence,binding result (up to 3.2 uM protein),binding result
AGCCAGTGACGATAAGGATTTGTTCTAGGTAAACGCCCGGGCTCTCAAACAAGGTTAAAAACTTCCACAGTACTGCCCCAAATGCACACATCCAGGCATAAGTGAGAAACGTAGCGGAAGGCAGGGAACGTCATGCTCTAAAGATTCGTCGCTCCGAAAGGAGGGCGTCTTGCGTGTTAATCGGCCGTTGACATATGCTCATTTCACCTTGCGGAATGAAATGAGCCCAGCTGTTGTTGCCGCTTTGGATGGTCCGGATCCGGCCGGTTTCAAGATCTCCAGGATCCCCTGGATAATTAATTGACCGGCCTCCTACACTCTGATCCGTACTTGATACATTGCTTATCGTCACTGGCT (double strand) [mlmbUp-B],no binding,
AGCCAGTGACGATAAGGATTTGTTCTAGGTAAACGCCCGGGCTCTCAAACAAGGTTAAAAACTTCCACAGTACTGCCCCAAATGCACACATCCAGGCATAAGTGAGAAACGTAGCGGAAGGCAGGGAACGTCATGCTCTAAAGATTCGTCGCTCCGAAAGGAGGGCGTCTTGCGTGTTAATCGGCCGTTGACATATGCTCATTTCACCTTGCGGAATGAAATGAGCCCAGCTGTTTGGCCGTTGGGTTGCCGCTTTGGATGGTCCGGATCCGGCCGGTTTCAAGATCTCCAGGATCCCCTGGATAATTAATTGACCGGCCTCCTACACTCTGATCCGTACTTGATACATTGCTTATCGTCACTGGCT (double strand) [lmbUp-B],,binds
AGCCAGTGACGATAAGGGTTCCCGTGGTGCTCCTCTGGTACGGCACCTCGCTCGCCGGCGCCGCCGGCACCGCGCTCGGACTGGCCGCCGTCACCGCCGTCTGCCGTATCCTCCTGCGCCAGTCGGAGCGCGGTGCGGCACGGCTACTGGCCGAAGAACGGGCCCCCCATCGCGGCCACCGCCACCGGGCCGGAACGGGGACACACAGGGGTGGGCGGCACGGTGGGGGAAATACACCGGTCGGCTGACCGGTTTCCGCGCACGCGCCCGACTCTTTTCAGCCAACTTCCGACCACCTTATCGTCACTGGCT (double strand) [adpAp-B],,binds
